# Data: PubChem BioAssay AID1487 (National Center for Advancing Translational Sciences (NCATS), 2009)
# The other results are listed elsewhere or left out. Further columns of the screen follow, without active or inactive calls. The list favours compounds with an active or inconclusive main result. Words in brackets tell the shape of the fitted curve; partial curves, single points and poor fits give uncertain potencies.
# Experiment: qHTS Assay for Modulators of Lamin A Splicing
# Settings: HeLa LMNA splicing GFP/RFP minigene ratio, 48 h
# Procedure, shortened: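 S3 HeLa stable clones carrying a lamin A-EGFP splicing minigene plus DsRed2 were seeded at 600 cells/well in Opti-MEM with 2% FBS, pin-dosed and incubated 48 h at 37°C. Acumen cytometry (488 nm) gave the GFP/RFP total-intensity ratio.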
# [1] = measured here: RFP viability control channel
# [2] = measured here: GFP splicing reporter channel
SMILES,AC50 [1],AC50 [2]
c1ccc(C[n+]2c(-c3ccccc3)csc2Nc2ccccc2)cc1,"35.5 µM [rising, single point]",–
Fc1ccccc1/C=N/n1cnnc1,"5.01 µM [falling, partial curve]","5.01 µM [falling, single point]"
Cc1cc2c(cc1C)CSC(c1ccccc1OC(=O)C(C)(C)C)SC2,"17.8 µM [rising, single point]",–
CCS(=O)(=O)N1CCN(C(=O)c2ccc(-c3ccccc3)cc2)CC1,"17.8 µM [rising, partial curve]","12.6 µM [rising, single point]"
COc1ccc(C2CC(c3cccs3)=NN2C(=O)CSc2nncs2)cc1OC (centres undefined),"5.62 µM [falling, single point]",–
COc1ccc(-c2nc3scc(CCNS(=O)(=O)c4ccc(F)cc4C)n3n2)cc1,"0.0141 µM [falling, full curve, poor fit]",–
Cc1ccccc1N1CCN(C(=O)c2ccc(Oc3ccc(C(F)(F)F)cn3)cc2)CC1,"20 µM [rising, single point]",–
CCOC(=O)Cc1csc(NC(=O)CCc2ccc(S(=O)(=O)N3CCOCC3)cc2)n1,"25.1 µM [rising, single point]","17.8 µM [rising, partial curve, poor fit]"
Cc1nc(NC(=O)CSc2nnc(-c3ccccc3)c(-c3ccccc3)n2)c(Cl)cc1Cl,"15.8 µM [rising, single point]",–
COc1ccc(NC(=S)N/N=C2\CC(C)(C)Oc3ccc(O)cc32)cc1,"5.62 µM [rising, partial curve, poor fit]",–
Cc1ccc(-c2ccc(=O)n(CCC(=O)NCCc3ccccc3)n2)cc1,–,"3.98 µM [falling, single point]"
Cc1ccc(S(=O)(=O)/C(C#N)=C/c2c[nH]c3ccccc23)cc1,"35.5 µM [rising, single point]","35.5 µM [rising, single point]"
O=C1C(Nc2ccccc2)=C/C(=N/S(=O)(=O)c2cccs2)c2ccccc21,"5.01 µM [falling, full curve]","3.98 µM [falling, full curve]"
CCCCC(NS(=O)(=O)c1ccc(C)cc1)C(=O)Oc1ccc2c3c(c(=O)oc2c1)CCC3 (centres undefined),"12.6 µM [rising, partial curve]",–
COc1ccc2c(c1)sc(N)[n+]2Cc1cc(C)cc2cccnc12,"2.51 µM [rising, partial curve]",–
O=C(O)[C@H]1C(=CCO)O[C@H]2CC(=O)N12,"0.0398 µM [falling, full curve, poor fit]","0.0355 µM [falling, full curve, poor fit]"
Cc1nc2c([nH]c3ccc(Br)cc32)s1,–,"20 µM [rising, partial curve]"
O=C(/C=C/c1c[nH]c2ccccc12)c1cccc2ccccc12,"22.4 µM [falling, partial curve]","8.91 µM [falling, partial curve, poor fit]"
CCCc1nn2c(=O)cc(COC(=O)c3ccc(NC(=O)COc4ccccc4)cc3)nc2s1,"0.0316 µM [falling, full curve, poor fit]",–

SMILES,AC50 [1],AC50 [2]
CCc1cccc2c(C(=O)C(F)(F)F)cn(CC(=O)N3CCOCC3)c12,"0.0178 µM [rising, full curve, poor fit]",–
COc1ccc(CNC(=O)COC(=O)CCOc2ccccc2)cc1,"5.01 µM [rising, single point]","6.31 µM [rising, single point]"
O=C(N/N=C\c1ccc(-c2ccc([N+](=O)[O-])cc2)o1)C1COc2ccccc2O1 (centres undefined),"35.5 µM [rising, single point]",–
CCC1CCCCN1c1nc2c(C=O)c(C)nn2c2ccccc12 (centres undefined),"7.08 µM [rising, partial curve, poor fit]",–
O=C(Cc1ccccc1F)Nc1nc2ccccc2[nH]1,"0.158 µM [rising, full curve, poor fit]",–
C[C@@H](C(=O)Nc1ccc2ccccc2c1)[C@H]1C[C@]1(C)[C@H](NC(=O)c1cccnc1)c1ccccc1,"14.1 µM [rising, partial curve]",–
Cc1nonc1C1CCCN1Cc1nc(-c2ccccc2Cl)oc1C (centres undefined),"35.5 µM [falling, partial curve]","35.5 µM [falling, partial curve, poor fit]"
Clc1ccc(-n2ncc3c(NCc4cccs4)ncnc32)cc1,"11.2 µM [rising, partial curve]",–
Cc1nc2cncnc2n(Cc2ccccc2)c1=O,"10 µM [rising, partial curve]",–
Clc1cccc(CN2CCC(Cc3ccccc3)CC2)c1,–,"12.6 µM [rising, partial curve, poor fit]"
COc1cccc(CNc2cc(CSc3ccc(Cl)cc3)nc(C)n2)c1,"12.6 µM [rising, single point]","12.6 µM [rising, single point]"
Cn1cccc1C(=O)OCC(=O)Nc1ccc2c(c1)CCC2,–,"1.58 µM [rising, partial curve, poor fit]"
CCOC(=O)C1=c2/c(=C/c3ccncc3)c(N)c(C(=O)OC)n2C(=O)C(c2ccncc2)S1 (centres undefined),–,"0.0891 µM [falling, full curve, poor fit]"
Cn1c(/C=N/NC(=O)c2ccccc2)nc2ccccc21,–,"10 µM [falling, partial curve]"
CCOC(=O)c1cnc(-n2nc(C)cc2C)nc1N(CC)CC,"12.6 µM [rising, single point]",–
Cc1cc(C)n2c(Br)c(CN3CCCC(C)C3)nc2n1 (centres undefined),–,"0.00891 µM [falling, full curve, poor fit]"
CCOC(=O)c1cnc2ccc(OCC)cc2c1NCc1ccccc1OC,"1 µM [rising, full curve, poor fit]",–
COc1cc(CNC(=O)c2cnc3c(-c4cccc(C)c4)c(C)nn3c2C)cc(OC)c1OC,–,"5.01 µM [rising, partial curve, poor fit]"
COc1ccc(-c2cc3ccc(O)c(CN4CCN(C)CC4)c3oc2=O)cc1OC,"7.08 µM [falling, partial curve]","10 µM [falling, partial curve]"

SMILES,AC50 [1],AC50 [2]
Cc1ccc(S(=O)(=O)N(C)c2ccc(OCC(=O)Nc3nc4c(ccc5ccccc54)s3)cc2)cc1,"12.6 µM [rising, single point]",–
CC(=O)Oc1cc(C(C)C)c(OCCN(C)C)cc1C,"3.16 µM [rising, single point]","12.6 µM [falling, single point]"
COc1cccc(NC(=O)Cn2nnc(-c3ccccc3N)n2)c1,"6.31 µM [rising, full curve, poor fit]",–
Cc1ccc(-c2ccc(C3C(C#N)=C(N)Oc4n[nH]c(C)c43)o2)cc1 (centres undefined),"28.2 µM [falling, partial curve]","35.5 µM [falling, single point]"
O=C(NC1CC(=O)N(c2ccc(Cl)cc2)C1)c1cc2ccccc2o1 (centres undefined),"0.0282 µM [falling, full curve]","0.00501 µM [falling, full curve, poor fit]"
O=c1cc(CSc2nnc(COc3ccc(Cl)cc3)o2)c2ccccc2[nH]1,"31.6 µM [rising, single point]",–
Cc1nc2scc(-c3ccccc3)c2c(=O)n1/N=C/c1ccco1,"12.6 µM [rising, single point]",–
CC(=O)Oc1c(C(=O)c2nnc(C)o2)c(=O)n(C)c2ccccc12,"3.98 µM [falling, single point]","4.47 µM [falling, single point]"
COc1ccc(Cc2nc(-c3ccc(-n4cccc4)cc3)no2)cc1OC,"6.31 µM [rising, single point]",–
COc1ccc2[nH]c(-c3cccc(F)c3)cc(=O)c2c1,"1.12 µM [rising, full curve]",–
CCOC(=O)c1cccc(NC(=O)CN(C)S(=O)(=O)c2cnc[nH]2)c1,–,"0.0631 µM [rising, full curve, poor fit]"
COC(=O)c1cc2c(-c3ccccc3)c(C)c3ccccn3c-2c1C(=O)OC,"17.8 µM [rising, single point]",–
Cn1c(SCc2nc3ccccc3[nH]2)nnc1-c1cccnc1,"3.98 µM [rising, single point]","5.62 µM [rising, single point]"
CC1=[N+](C)c2ccc3ccccc3c2C1(C)C,"3.16 µM [rising, full curve, poor fit]","6.31 µM [rising, full curve]"
C/C(=N\NC(=O)Cc1cccc2ccccc12)c1ccncc1,–,"25.1 µM [rising, single point]"
CCOc1cc(C=O)cc(Br)c1OCC(=O)NCCc1ccccc1,"35.5 µM [rising, single point]",–
CC(C)CCN1CCN(Cc2ccc(N3CCNC3=O)cc2)CC1CCO (centres undefined),"0.02 µM [falling, full curve, poor fit]",–
COc1ccc(CCN(C(=O)Cn2nnc3ccccc32)C(C(=O)NCC2CCCO2)c2ccncc2)cc1OC (centres undefined),"6.31 µM [falling, partial curve, poor fit]",–
Oc1cccc(C(O)CNCc2ccc(-c3ccccc3)cc2)c1 (centres undefined),"10 µM [rising, partial curve]",–

# Two of these compounds, reformatted:
SMILES | AC50 [1] | AC50 [2]
COc1ccc2[nH]c(-c3cccc(F)c3)cc(=O)c2c1 | 1.12 µM [rising, full curve] | –
CC(C)CCN1CCN(Cc2ccc(N3CCNC3=O)cc2)CC1CCO (centres undefined) | 0.02 µM [falling, full curve, poor fit] | –
